These are yes or no findings as the source states them, for the method shown. Binding seen in cells or lysates may run through a third protein. Where a sequence is shown, tags or fusion partners need not be part of it.

Experimental findings from article PMC8997993 are described below.

For this assay, the target named is T1, CIB5-cYFP-3× Myc (A. thaliana) (UniProt Q9C670).
T1 sequence: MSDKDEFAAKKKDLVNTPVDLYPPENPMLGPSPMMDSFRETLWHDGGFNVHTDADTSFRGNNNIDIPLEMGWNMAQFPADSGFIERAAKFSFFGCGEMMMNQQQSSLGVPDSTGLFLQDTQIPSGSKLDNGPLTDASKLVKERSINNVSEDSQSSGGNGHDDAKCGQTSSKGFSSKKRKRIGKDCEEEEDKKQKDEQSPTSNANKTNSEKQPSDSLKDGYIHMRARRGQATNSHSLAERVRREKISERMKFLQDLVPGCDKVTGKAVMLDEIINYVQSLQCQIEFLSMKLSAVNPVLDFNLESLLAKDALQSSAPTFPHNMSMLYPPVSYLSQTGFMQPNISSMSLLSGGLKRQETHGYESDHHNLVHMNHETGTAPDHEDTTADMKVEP
The assay is described as follows: co-IP; BiFC plasmids co-transformed into A. thaliana protoplasts, 22 °C 12-16 h in the dark; total protein on anti-c-Myc affinity gel 4 h at 4 °C; washed with TTBS (17 mM Tris, 130 mM NaCl, pH 7.5, 1% Triton-X100); blots with anti-FLAG and anti-c-Myc.

B1: PRE1-nYFP-3×FLAG (protein, UniProt Q9FLE9 1-92)
chain: MSNRRSRQSSSAPRISDNQMIDLVSKLRQILPEIGQRRRSDKASASKVLQETCNYIRNLNREVDNLSERLSQLLESVDEDSPEAAVIRSLLM
Turning to B1, the binding result is recorded as “no binding”.
